# The list is a part of this screen's results and no random one: it gathers tests that were run many times, whatever their T/C, doses with no T/C, and many T/C values between a quarter and a half above the control. Other doses and runs of a compound stand elsewhere. T/C: endpoint of the treated group in % of that of the vehicle group. Some entries give survivors of the animals treated and no T/C: the source holds a T/C of zero for them, seemingly a mark for toxic or unscored doses. Some doses without a T/C left all or most animals alive at the check, yet need not have been tolerated: survival well below the control is almost never listed, so the zero probably covers shortened survival too. Counts of survivors are from the toxicity check (mostly the fifth day) where no day follows; animals may have died later. Schedule codes are those of the source, taken here to give the interval after Q, in days (D) or hours (H), and the number of doses after X. Some entries were tested several times; their values stand side by side, smallest first. Some schedule codes hold Z or #, which are not explained here. Where survival is the endpoint, this PubChem deposit counts one and a half times the control or more as active, and values a quarter to a half above the control carry no call in these data; other NCI protocols may use other cut-offs.
# System: L1210 leukemia ip in BDF1 mice, survival T/C
# Assay: NCI In Vivo Anticancer Drug Screen. Data for tumor model L1210 Leukemia (intraperitoneal) in B6D2F1 (BDF1) mice
# Details: T/C endpoint: mean survival time, higher T/C = longer survival
# [1] = dose: 100.0 mg/kg/injection, schedule: Q04DX003 (ip), vehicle: Klucel (hydroxypropylcellulose) (HPC)
# [2] = dose: 200.0 mg/kg/injection, schedule: Q04DX003 (ip), vehicle: Klucel (hydroxypropylcellulose) (HPC)
# [3] = dose: 400.0 mg/kg/injection, schedule: Q04DX003 (ip), vehicle: Klucel (hydroxypropylcellulose) (HPC)
# [4] = dose: 400.0 mg/kg/injection, schedule: Q01DX009 (ip), vehicle: Klucel (hydroxypropylcellulose) (HPC)
# [5] = dose: 100.0 mg/kg/injection, schedule: Q04DX003 (ip), vehicle: saline with Tween-80
# [6] = dose: 200.0 mg/kg/injection, schedule: Q04DX003 (ip), vehicle: saline with Tween-80
# [7] = dose: 400.0 mg/kg/injection, schedule: Q04DX003 (ip), vehicle: saline with Tween-80
# [8] = dose: 25.0 mg/kg/injection, schedule: Q01DX015 (ip), vehicle: carboxymethylcellulose (CMC)
# [9] = dose: 100.0 mg/kg/injection, schedule: Q01DX001 (ip), vehicle: carboxymethylcellulose (CMC)
# [10] = dose: 200.0 mg/kg/injection, schedule: Q01DX001 (ip), vehicle: carboxymethylcellulose (CMC)
# [11] = dose: 200.0 mg/kg/injection, schedule: Q04DX003 (ip), vehicle: saline
# [12] = dose: 400.0 mg/kg/injection, schedule: Q04DX003 (ip), vehicle: saline
# [13] = dose: 400.0 mg/kg/injection, schedule: Q01DX009 (ip), vehicle: saline with Tween-80
compound,measurement,setting,value
COC(=O)/C=C\C=C(\CBr)C(=O)OC,survivor count,[1],0 of 6
same,survivor count,[2],0 of 6
same,survivor count,[3],0 of 6
NC(=S)SCCC(=O)O,survivor count,[1],2 of 6
CCCC(=O)c1ccc(OC)c(OC)c1,survivor count,[4],3 of 6
CC1CC[N-]CC1.CC1CC[N-]CC1.[Br][Pt+2]([Br])([Br])[Br],survivor count,"dose: 25.0 mg/kg/injection, schedule: Q01DX009 (ip), vehicle: saline with Tween-80",1 of 6
same,survivor count,"dose: 50.0 mg/kg/injection, schedule: Q04DX003 (ip), vehicle: saline with Tween-80",1 of 6
same,survivor count,[5],1 of 6
same,survivor count,[6],0 of 6
same,survivor count,[7],0 of 6
CN(C)CNC=O,survivor count,"dose: 200.0 mg/kg/injection, schedule: Q01DX009 (ip), vehicle: saline",6 of 6
same,survivor count,"dose: 400.0 mg/kg/injection, schedule: Q01DX009 (ip), vehicle: saline",5 of 6
COc1cc(N(CCCl)CCCl)ccc1C=Nc1ccccc1C(=O)O,T/C,"dose: 3.5 mg/kg/injection, schedule: Q01DX015 (ip), vehicle: carboxymethylcellulose (CMC)",125 % of control
same,T/C,"dose: 5.3 mg/kg/injection, schedule: Q01DX015 (ip), vehicle: carboxymethylcellulose (CMC)",125 and 132 % of control
same,T/C,"dose: 7.1 mg/kg/injection, schedule: Q01DX015 (ip), vehicle: carboxymethylcellulose (CMC)",127 % of control
same,T/C,"dose: 9.0 mg/kg/injection, schedule: Q01DX015 (ip), vehicle: carboxymethylcellulose (CMC)",138 and 142 % of control
same,T/C,"dose: 10.0 mg/kg/injection, schedule: Q01DX001 (ip), vehicle: carboxymethylcellulose (CMC)",131 % of control
same,T/C,"dose: 15.0 mg/kg/injection, schedule: Q01DX015 (ip), vehicle: carboxymethylcellulose (CMC)",146 % of control
same,T/C,[8],97 and 125 % of control
same,survivor count,[8],5 of 6 and 6 of 6
same,survivor count,"dose: 35.0 mg/kg/injection, schedule: Q01DX015 (ip), vehicle: carboxymethylcellulose (CMC)",0 of 6
same,T/C,"dose: 40.0 mg/kg/injection, schedule: Q01DX001 (ip), vehicle: carboxymethylcellulose (CMC)",140 % of control
same,T/C,"dose: 50.0 mg/kg/injection, schedule: Q01DX001 (ip), vehicle: carboxymethylcellulose (CMC)",125 % of control
same,survivor count,"dose: 55.0 mg/kg/injection, schedule: Q01DX015 (ip), vehicle: carboxymethylcellulose (CMC)",0 of 6
same,survivor count,"dose: 75.0 mg/kg/injection, schedule: Q01DX001 (ip), vehicle: carboxymethylcellulose (CMC)",1 of 4
same,survivor count,"dose: 80.0 mg/kg/injection, schedule: Q01DX001 (ip), vehicle: carboxymethylcellulose (CMC)",1 of 4
same,survivor count,"dose: 80.0 mg/kg/injection, schedule: Q01DX015 (ip), vehicle: carboxymethylcellulose (CMC)",0 of 6
same,survivor count,[9],0 of 4 and 1 of 4
same,survivor count,[10],0 of 4
same,survivor count,"dose: 400.0 mg/kg/injection, schedule: Q01DX001 (ip), vehicle: carboxymethylcellulose (CMC)",0 of 4
N#CC1CCCC1=O (configuration not stated),survivor count,[5],0 of 6
same,survivor count,[6],0 of 6
same,survivor count,[7],0 of 6
O=[N+]([O-])c1ccccc1/C=N/N1CCN(/N=C/c2ccccc2[N+](=O)[O-])CC1,survivor count,[9],4 of 4
CC(C)CC1(C(C)C)C(=O)NC(=S)NC1=O,survivor count,"dose: 75.0 mg/kg/injection, schedule: Q01DX001 (ip), vehicle: saline",1 of 6
same,survivor count,"dose: 150.0 mg/kg/injection, schedule: Q01DX001 (ip), vehicle: saline",2 of 6
same,survivor count,"dose: 300.0 mg/kg/injection, schedule: Q01DX001 (ip), vehicle: saline",0 of 6
Nc1[nH]c(=O)cc(O)c1N,survivor count,"dose: 50.0 mg/kg/injection, schedule: Q04DX003 (ip), vehicle: saline",6 of 6
same,survivor count,[11],0 of 6
same,survivor count,[12],1 of 6
COc1cc(OC)c(OC)cc1OC,survivor count,[13],0 of 6
O=C1C=CC(=O)N1CO,survivor count,"dose: 10.0 mg/kg/injection, schedule: Q01DX009 (ip), vehicle: saline",0 of 6
CCOC(=O)/C(C)=N\N=C(/CCOC)COC,T/C,"dose: 100.0 mg/kg/injection, schedule: Q01DX009 (ip), vehicle: carboxymethylcellulose (CMC)",125 % of control
same,T/C,"dose: 200.0 mg/kg/injection, schedule: Q01DX009 (ip), vehicle: carboxymethylcellulose (CMC)",143 % of control
Nc1ccc2ncsc2c1,survivor count,[13],5 of 6
CONC(=O)NC(=O)C1(c2ccccc2)CCCCC1,T/C,"dose: 100.0 mg/kg/injection, schedule: Q01DX Z (ip), vehicle: methylcellulose (MC)",131 % of control
COc1ccc(/C=N\NC(=O)N/N=C/c2ccc(OC)c(Br)c2)cc1Br,survivor count,"dose: 200.0 mg/kg/injection, schedule: Q04DX002 (ip), vehicle: Klucel (hydroxypropylcellulose) (HPC)",3 of 3
O=C(O)c1cc(-c2ccc(Cl)cc2)nc2c(Cl)cccc12,survivor count,[1],1 of 6
same,survivor count,[2],2 of 6
same,survivor count,[3],6 of 6
C1=C(COC(c2ccccc2)(c2ccccc2)c2ccccc2)CCCC1,survivor count,[10],4 of 4
CCOC(=O)CCCCCCCCCC[N+](CC)(CC)CC(=O)c1ccc(NC(C)=O)cc1,survivor count,"dose: 300.0 mg/kg/injection, schedule: Q01DX001 (ip), vehicle: other",3 of 6
O=C(COc1ccc(Cl)cc1Cl)OCCCl,survivor count,"dose: 400.0 mg/kg/injection, schedule: Q04DX002 (ip), vehicle: Klucel (hydroxypropylcellulose) (HPC)",0 of 3
CCOC1(OCC)C(Cl)=C(Cl)C(Cl)=C1Cl,survivor count,"dose: 100.0 mg/kg/injection, schedule: Q01DX009 (ip), vehicle: Klucel (hydroxypropylcellulose) (HPC)",0 of 3
same,survivor count,"dose: 100.0 mg/kg/injection, schedule: Q04DX002 (ip), vehicle: Klucel (hydroxypropylcellulose) (HPC)",2 of 3
N#Cc1cc2c(N)[nH]nc2nc1N,survivor count,"dose: 200.0 mg/kg/injection, schedule: Q01DX009 (ip), vehicle: Klucel (hydroxypropylcellulose) (HPC)",6 of 6
same,survivor count,[4],4 of 6
CCOC(=O)c1ccc(N(CC(S)CNc2cc(C)nc(N)n2)S(=O)(=O)c2ccc(C)cc2)cc1 (configuration not stated),survivor count,"dose: 100.0 mg/kg/injection, schedule: Q01DX001 (ip), vehicle: saline with Tween-80",2 of 6
same,survivor count,"dose: 100.0 mg/kg/injection, schedule: Q01DX001 (ip), vehicle: saline",4 of 6
same,survivor count,"dose: 200.0 mg/kg/injection, schedule: Q01DX001 (ip), vehicle: saline with Tween-80",1 of 6
same,survivor count,"dose: 400.0 mg/kg/injection, schedule: Q01DX001 (ip), vehicle: saline with Tween-80",0 of 6
C1CCN(CCC2CCNCC2)CC1,survivor count,[11],2 of 6
same,survivor count,[12],0 of 6
FC(F)(F)c1nc2cccc3c2n1CCC3,survivor count,[7],2 of 6
O=[N+]([O-])c1ccc2nc[nH]c2c1,survivor count,"dose: 100.0 mg/kg/injection, schedule: Q01DX009 (ip), vehicle: saline with Tween-80",5 of 6
same,survivor count,"dose: 200.0 mg/kg/injection, schedule: Q01DX Z (ip), vehicle: distilled water + alcohol",0 of 6
CC(=O)Nc1ncnc2c1c(C(N)=O)cn2C1OC(COC(C)=O)C(OC(C)=O)C1OC(C)=O (configuration not stated),survivor count,"dose: 200.0 mg/kg/injection, schedule: Q01DX001 (ip), vehicle: water",0 of 6
same,survivor count,"dose: 400.0 mg/kg/injection, schedule: Q01DX001 (ip), vehicle: water",1 of 6
FC(F)(F)C(F)(F)c1nc2nc(Cl)c(Cl)nc2[nH]1,survivor count,"dose: 200.0 mg/kg/injection, schedule: Q01DX009 (ip), vehicle: other",1 of 6
same,T/C,"dose: 200.0 mg/kg/injection, schedule: Q04DX003 (ip), vehicle: other",131 % of control
same,survivor count,"dose: 300.0 mg/kg/injection, schedule: Q04DX003 (ip), vehicle: other",3 of 6
same,survivor count,"dose: 400.0 mg/kg/injection, schedule: Q04DX003 (ip), vehicle: other",3 of 6
